In publication PMC10820479, “An Improved In Vitro Blood-Brain Barrier Model for the Evaluation of Drug Permeability Using Transwell with Shear Stress” (Pharmaceutics, 2023):
Structures can show the parent of a compound that is named as a salt.

How the values were obtained:
[1] = test system: in vitro AS BBB model (hCMEC/D3 co-cultured with U87MG); test: in vitro
Procedure: (§1) The culture inserts (Costar®, Washington, DC, USA, 6.5 mm diameter) of polycarbonate (PC) and polyester (PET) membrane were procured from Corning Inc. (Corning, NY, USA). […] After washing twice with PBS, the cells were seeded at a density of 1 × 10^5 hCMEC/D3 cells/well in the apical chamber and 3 × 10^4 U87MG cells/well on the basolateral side of the insert. The cultivation method was modified from that described in the literature. Briefly, the insert was inverted, and U87MG cells were initially seeded. The insert was flipped 3–4 h after seeding the U87MG cells. Subsequently, hCMEC/D3 cells were seeded 1 day later.
(§2) To prevent nonspecific binding, all compounds were pre-incubated for 30 min prior to the permeability study. The samples were collected at 0 min from the donor and at 30, 60, and 90 min from the acceptor and immediately replaced with a new transport buffer. Incubation was carried out in a humidified 5% CO2 environment at 37 °C with shaking at 100 rpm.
(§3) After culturing the cells in culture inserts, as described in Section 2.3, they were transferred to the AS prepared on day 3, and cultivation was carried out with orbital shaking at 150 rpm until day 17 (Figure 1b). The cultivated AS BBB model was employed to investigate the effects of the AS size, as well as the influence of FBS and ITS. […]
(§4) The optimized AS BBB model was evaluated as follows.

[2] = in vitro; conditions: human
Procedure: as §1, §2, §3, §4

In the case of `COc1cc2c(cc1OC)C(=O)C(CC1CCN(Cc3ccccc3)CC1)C2` (centres unmarked) [Donepezil, donepezil HCl], the “permeability (in words)” value [1] is reported as “high permeability” and the Papp [2] is reported as 41.6 ± 7 ×10⁻⁶ cm/s.
